# Test system: HeLa cells
# Experiment: Live-cell confocal imaging of fluorescent STIM1 distribution
# Type: cell-based, human
# Protocol: Panel A: YFP-STIM1 redistributes into punctate structures following Ca^2+ store depletion. HeLa cells were co-transfected with YFP-STIM1 and a CFP-tagged ER marker. CFP/YFP confocal images of the same cell were taken before (top two panels) and 8 minutes after (bottom two panels) histamine plus thapsigargin stimulation. The arrows point to peripheral sites rich in puncta. The magnified panels on the right show the co-localization of STIM1 with the ER marker before stimulation. […] HeLa cells were co-transfected with YFP-STIM1(D76A) and a CFP-ER marker. CFP/YFP confocal images of the same cell were taken before (top two panels) and 8 minutes after (bottom two panels) histamine plus thapsigargin stimulation. Scale bar=10 μm. […]
# FIG. 4 is a set of photographs and a graph showing that STIM1 exists in two localization states and is rapidly redistributed into puncta near the plasma membrane following Ca^2+ store depletion. […] Panel C: Kinetic analysis of the average relative fluorescence intensity in near plasma membrane YFP-STIM1 puncta (n=212; an exponential fit is shown). […]
# NF-ATc1 translocation was monitored in HeLa cells co-transfected with NF-ATc1-YFP and pECFP-Nuc plasmids with ImageXpress 5000A using a 10× objective. […] Images were analyzed using the MetaMorph software (Universal Imaging Corporation).
substance,measurement,setting,value
"YFP-STIM1 EF-hand mutant: YFP-conjugated EF-hand mutant of STIM1, D76A; calcium-insensitive marker",localization before stimulation,before histamine plus thapsigargin,already significantly pre-localized in puncta before stimulation
same,effect of Ca2+ store depletion on localization,histamine plus thapsigargin,no significant additional effect
